In this test the target is T1, lysosome-associated membrane protein type 2A (mouse (endogenous in C2C12)) (UniProt P17047).
T1 sequence: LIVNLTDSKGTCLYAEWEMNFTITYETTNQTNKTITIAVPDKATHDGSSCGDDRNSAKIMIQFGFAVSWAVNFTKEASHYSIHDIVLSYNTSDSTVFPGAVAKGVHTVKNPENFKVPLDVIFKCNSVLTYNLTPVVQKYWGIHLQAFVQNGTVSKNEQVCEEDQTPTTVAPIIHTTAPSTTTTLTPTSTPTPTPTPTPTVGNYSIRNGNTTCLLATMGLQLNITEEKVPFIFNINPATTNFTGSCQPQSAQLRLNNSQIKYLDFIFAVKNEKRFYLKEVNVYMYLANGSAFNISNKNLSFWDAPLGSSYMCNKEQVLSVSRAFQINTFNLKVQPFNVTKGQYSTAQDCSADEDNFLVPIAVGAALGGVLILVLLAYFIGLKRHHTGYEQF
The test can be described thus: co-IP; Co-IP in C2C12 myotubes; precipitating antibody, bait and buffer not described in the text shown.

These are yes or no findings as the source states them, for the method shown. Binding seen in cells or lysates may run through a third protein. Some results given as binding are weak or reduced against the parent protein; the word gives no strength.

B1: C1q/TNF-related protein 9 (protein, UniProt Q4ZJN1 20-333)
chain: QDTCRQGHSGIPGNPGHNGLPGRDGRDGAKGDKGDAGEPGHPGGPGKDGIRGEKGEPGADGRVEAKGIKGDPGSRGSPGKHGPKGSIGPTGEQGLPGETGPQGQKGDKGEVGPTGPEGLMGSTGPLGPKGLPGPMGPIGKPGPRGEAGPMGPQGEPGVRGMRGWKGDRGEKGKVGEAPLVPKSAFTVGLTVISKFPPPDAPIKFDKILYNELNHYNVATGKFTCHVAGVYYFTYHITVFSRNVQVSLVKNGVKVLHTKDSYMSSEDQASGGIVQELKLGDEVWMQVTGGERFNGLFADEDDDTTFTGFLLFSSS
Consider B1, for which the binding result is recorded as “binds”.

Source of the values: paper PMC12504663.
